Experimental findings from paper PMC4941368 are described below.

Sequences of proteins named here, by UniProt entry; tags and fusion partners are left off.
UniProt P49715, whole entry: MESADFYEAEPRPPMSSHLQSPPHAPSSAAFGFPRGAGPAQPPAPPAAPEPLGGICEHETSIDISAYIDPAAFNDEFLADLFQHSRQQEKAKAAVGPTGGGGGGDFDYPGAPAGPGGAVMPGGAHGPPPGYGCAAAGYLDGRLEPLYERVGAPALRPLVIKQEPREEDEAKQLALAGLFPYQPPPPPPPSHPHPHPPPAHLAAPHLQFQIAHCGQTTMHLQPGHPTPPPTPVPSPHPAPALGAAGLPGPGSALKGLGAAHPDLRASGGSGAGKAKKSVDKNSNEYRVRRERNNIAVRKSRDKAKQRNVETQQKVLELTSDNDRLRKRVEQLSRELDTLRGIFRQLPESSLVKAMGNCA

For at least one entry, the source does not settle the construct or the ends of the probe. Where cells or extracts were used, other partners may take part. A weaker result is weaker than the reference pair of the same experiment.

The data set addresses C/EBPα (UniProt P49715). Description: EMSA. Particulars: 4 µg Huh7 nuclear extract, 50 fmol 3'-biotin probe, 5% native PAGE at 4°C, chemiluminescence, preincubation with c-myc or antibody 1 h at 4°C, protein in an extract, label: 3'-biotin.

As for “GAGAAAGAATTGTTTACTTTTAAACCCTGGA (double strand) [miR-122 promoter C/EBPα-binding probe]”, the binding result is given as “binds” (complex lost after C/EBPα antibody depletion of extract, reduced by 100x unlabeled probe) and “binds more weakly” (extract preincubated with recombinant His6-c-myc, dose-dependent inhibition of binding).
